From paper PMC8547044
These are yes or no findings as the source states them, for the method shown. Binding seen in cells or lysates may run through a third protein. These calls come from enrichment with a bait or labelling near it, and not all partners need be listed.

The chains behind the UniProt entries cited, without tags or fusion partners. Residues count along the entry.
UniProt P29279, residues 27-349: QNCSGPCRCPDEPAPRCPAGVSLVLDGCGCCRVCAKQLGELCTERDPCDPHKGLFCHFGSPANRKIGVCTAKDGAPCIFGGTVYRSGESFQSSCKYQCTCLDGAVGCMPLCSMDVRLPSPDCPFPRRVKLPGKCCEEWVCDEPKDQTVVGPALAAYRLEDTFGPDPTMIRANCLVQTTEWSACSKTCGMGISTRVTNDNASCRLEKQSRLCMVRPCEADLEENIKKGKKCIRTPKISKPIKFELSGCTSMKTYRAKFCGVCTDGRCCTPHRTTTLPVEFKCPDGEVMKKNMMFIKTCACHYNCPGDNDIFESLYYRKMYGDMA
UniProt P07355: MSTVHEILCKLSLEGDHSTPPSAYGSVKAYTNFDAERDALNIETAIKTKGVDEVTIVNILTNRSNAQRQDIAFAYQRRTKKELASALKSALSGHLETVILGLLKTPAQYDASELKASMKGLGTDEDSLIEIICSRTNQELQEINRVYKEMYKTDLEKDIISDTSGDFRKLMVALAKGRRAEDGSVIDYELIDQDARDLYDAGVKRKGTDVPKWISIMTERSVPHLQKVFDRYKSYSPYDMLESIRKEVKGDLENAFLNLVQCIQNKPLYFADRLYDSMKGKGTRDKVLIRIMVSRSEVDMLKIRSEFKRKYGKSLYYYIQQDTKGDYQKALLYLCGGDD

Target: Connective tissue growth factor (CTGF) (human (endogenous in RA FLS)) (UniProt P29279)
Assay: affinity purification with mass spectrometry; Co-IP with anti-CTGF mAb from RA FLS lysates (RIPA buffer), protein A agarose beads, SDS-PAGE, Nano-LC-MS/MS of gel pieces; IgG as control

Question: Which binding does the source give for “Annexin A2 (ANXA2) (from UniProt P07355 1-339)” here?
Answer: binds
